The other results are listed elsewhere or left out.
Tests used:
Experiment in all cases: log2 fold change, soluble protein after heating vs DMSO (PISA); higher = thermal stabilisation; K562 cells, 10 uM, 30 min; active = over 0.2 and 3.5 SD of the protein, either way, in both replicates (recomputed)
bafetinib = compound: Cc1ccc(NC(=O)c2ccc(CN3CC[C@H](N(C)C)C3)c(C(F)(F)F)c2)cc1Nc1nccc(-c2cncnc2)n1 [bafetinib]
Method in brief: (§1)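 Values are thermal stability changes relative to control samples and are taken from duplicates. They are stated as log2 fold changes. Before quantification by TMTpro 16plex LC-MS/MS with equalised channel sums, K562 cells at 2×10^6 cells/mL were treated with 10 μM compound for 30 min, heated in aliquots for 3 min across 48°C-58°C, pooled, extracted in PBS with 0.5% NP-40 at 4°C, and centrifuged at 21,000xg for 90 min to give the soluble supernatant.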

Protein sequences, listed by entry. Tags and fused reporters are not part of them. Lines headed by an entry give the natural chain unless they say otherwise; changes in a name come on top.
UniProt Q9UL15: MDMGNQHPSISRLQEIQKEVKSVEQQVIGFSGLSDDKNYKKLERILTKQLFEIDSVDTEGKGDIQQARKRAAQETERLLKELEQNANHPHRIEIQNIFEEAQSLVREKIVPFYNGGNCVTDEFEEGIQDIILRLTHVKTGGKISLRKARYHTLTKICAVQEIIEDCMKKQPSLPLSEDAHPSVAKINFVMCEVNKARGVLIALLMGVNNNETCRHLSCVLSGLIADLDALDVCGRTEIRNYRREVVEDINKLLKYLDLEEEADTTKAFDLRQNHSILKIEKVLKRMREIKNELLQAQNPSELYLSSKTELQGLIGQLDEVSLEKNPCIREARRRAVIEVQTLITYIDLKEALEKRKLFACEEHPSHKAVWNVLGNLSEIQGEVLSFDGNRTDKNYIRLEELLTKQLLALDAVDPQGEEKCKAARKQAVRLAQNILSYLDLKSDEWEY
UniProt Q13825: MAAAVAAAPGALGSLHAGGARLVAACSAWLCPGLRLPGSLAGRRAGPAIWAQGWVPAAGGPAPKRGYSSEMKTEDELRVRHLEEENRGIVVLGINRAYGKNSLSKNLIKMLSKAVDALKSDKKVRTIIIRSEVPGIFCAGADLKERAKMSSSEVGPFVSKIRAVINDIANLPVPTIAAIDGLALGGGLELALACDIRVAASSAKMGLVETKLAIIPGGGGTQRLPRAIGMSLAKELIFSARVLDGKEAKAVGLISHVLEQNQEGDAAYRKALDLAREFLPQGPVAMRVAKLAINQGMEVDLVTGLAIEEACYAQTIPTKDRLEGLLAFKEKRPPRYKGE
UniProt Q9UL45: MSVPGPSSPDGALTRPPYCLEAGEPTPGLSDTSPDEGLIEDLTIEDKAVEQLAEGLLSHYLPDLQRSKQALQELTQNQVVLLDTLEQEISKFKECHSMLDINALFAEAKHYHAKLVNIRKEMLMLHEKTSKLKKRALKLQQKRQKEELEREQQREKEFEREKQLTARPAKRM
UniProt P25440, whole entry, looked up: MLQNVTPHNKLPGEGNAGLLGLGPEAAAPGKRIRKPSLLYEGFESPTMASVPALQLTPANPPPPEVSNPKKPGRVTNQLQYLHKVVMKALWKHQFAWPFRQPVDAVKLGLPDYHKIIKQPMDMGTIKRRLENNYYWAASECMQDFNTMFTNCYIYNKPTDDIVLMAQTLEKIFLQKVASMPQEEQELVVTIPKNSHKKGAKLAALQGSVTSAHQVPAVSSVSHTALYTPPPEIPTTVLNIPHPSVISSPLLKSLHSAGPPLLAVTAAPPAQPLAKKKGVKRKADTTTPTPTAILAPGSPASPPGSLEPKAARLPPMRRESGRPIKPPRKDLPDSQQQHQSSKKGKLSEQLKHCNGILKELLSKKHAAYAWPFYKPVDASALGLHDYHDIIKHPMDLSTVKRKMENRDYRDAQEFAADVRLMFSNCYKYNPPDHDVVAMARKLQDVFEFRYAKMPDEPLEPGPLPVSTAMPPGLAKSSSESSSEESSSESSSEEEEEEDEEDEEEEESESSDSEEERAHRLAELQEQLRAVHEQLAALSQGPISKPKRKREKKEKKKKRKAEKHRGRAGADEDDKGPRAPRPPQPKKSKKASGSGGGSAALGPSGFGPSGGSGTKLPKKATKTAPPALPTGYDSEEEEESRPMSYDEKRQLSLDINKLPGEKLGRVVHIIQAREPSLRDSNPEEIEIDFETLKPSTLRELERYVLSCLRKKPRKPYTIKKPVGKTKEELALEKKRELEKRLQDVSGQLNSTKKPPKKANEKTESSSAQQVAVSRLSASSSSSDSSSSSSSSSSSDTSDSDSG
UniProt P54132: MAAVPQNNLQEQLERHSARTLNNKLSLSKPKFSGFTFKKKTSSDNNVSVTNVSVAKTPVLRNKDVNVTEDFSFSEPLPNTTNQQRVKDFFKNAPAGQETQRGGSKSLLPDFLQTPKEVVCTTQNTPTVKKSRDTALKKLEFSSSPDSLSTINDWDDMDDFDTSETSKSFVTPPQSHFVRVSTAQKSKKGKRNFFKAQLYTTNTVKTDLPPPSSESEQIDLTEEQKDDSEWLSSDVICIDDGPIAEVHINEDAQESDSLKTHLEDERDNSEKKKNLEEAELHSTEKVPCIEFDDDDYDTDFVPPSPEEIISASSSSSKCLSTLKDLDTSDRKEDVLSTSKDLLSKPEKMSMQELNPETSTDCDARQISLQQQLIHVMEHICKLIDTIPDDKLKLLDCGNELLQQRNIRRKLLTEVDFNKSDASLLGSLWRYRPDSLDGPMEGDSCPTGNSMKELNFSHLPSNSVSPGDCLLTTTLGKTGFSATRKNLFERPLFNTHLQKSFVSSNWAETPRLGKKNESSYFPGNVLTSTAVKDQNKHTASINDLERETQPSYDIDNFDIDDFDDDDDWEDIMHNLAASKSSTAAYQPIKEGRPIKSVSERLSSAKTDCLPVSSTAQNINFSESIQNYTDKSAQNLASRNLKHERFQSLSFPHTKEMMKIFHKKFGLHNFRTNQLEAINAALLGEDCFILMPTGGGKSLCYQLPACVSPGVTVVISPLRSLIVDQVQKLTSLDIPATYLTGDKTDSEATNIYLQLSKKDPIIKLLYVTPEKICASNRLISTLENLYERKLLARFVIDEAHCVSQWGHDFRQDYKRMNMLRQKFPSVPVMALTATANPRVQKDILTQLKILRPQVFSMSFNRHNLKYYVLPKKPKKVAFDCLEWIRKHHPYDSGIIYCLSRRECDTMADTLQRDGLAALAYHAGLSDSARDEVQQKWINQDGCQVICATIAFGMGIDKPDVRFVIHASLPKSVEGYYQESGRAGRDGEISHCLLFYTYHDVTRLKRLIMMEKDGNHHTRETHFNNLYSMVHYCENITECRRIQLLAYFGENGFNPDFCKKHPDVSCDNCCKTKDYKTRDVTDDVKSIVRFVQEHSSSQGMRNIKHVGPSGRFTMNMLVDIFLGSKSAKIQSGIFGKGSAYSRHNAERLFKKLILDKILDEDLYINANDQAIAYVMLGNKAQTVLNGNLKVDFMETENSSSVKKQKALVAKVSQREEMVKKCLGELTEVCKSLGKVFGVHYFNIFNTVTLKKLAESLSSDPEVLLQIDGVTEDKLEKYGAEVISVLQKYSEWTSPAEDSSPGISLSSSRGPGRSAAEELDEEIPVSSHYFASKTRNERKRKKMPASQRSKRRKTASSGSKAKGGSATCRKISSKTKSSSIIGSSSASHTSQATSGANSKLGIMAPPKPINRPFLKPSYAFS
UniProt Q12983, whole entry, looked up: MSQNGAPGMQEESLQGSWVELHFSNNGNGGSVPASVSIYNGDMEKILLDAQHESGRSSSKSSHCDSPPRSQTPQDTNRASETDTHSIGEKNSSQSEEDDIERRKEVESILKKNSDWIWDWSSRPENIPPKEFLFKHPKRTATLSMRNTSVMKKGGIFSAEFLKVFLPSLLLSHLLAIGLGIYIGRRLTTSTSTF
UniProt O15392, whole entry, looked up: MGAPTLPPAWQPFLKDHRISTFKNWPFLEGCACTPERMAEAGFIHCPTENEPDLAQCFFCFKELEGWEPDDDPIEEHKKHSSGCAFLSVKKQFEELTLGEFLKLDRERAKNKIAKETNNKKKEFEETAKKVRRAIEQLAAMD
UniProt Q9H0E9, whole entry, looked up: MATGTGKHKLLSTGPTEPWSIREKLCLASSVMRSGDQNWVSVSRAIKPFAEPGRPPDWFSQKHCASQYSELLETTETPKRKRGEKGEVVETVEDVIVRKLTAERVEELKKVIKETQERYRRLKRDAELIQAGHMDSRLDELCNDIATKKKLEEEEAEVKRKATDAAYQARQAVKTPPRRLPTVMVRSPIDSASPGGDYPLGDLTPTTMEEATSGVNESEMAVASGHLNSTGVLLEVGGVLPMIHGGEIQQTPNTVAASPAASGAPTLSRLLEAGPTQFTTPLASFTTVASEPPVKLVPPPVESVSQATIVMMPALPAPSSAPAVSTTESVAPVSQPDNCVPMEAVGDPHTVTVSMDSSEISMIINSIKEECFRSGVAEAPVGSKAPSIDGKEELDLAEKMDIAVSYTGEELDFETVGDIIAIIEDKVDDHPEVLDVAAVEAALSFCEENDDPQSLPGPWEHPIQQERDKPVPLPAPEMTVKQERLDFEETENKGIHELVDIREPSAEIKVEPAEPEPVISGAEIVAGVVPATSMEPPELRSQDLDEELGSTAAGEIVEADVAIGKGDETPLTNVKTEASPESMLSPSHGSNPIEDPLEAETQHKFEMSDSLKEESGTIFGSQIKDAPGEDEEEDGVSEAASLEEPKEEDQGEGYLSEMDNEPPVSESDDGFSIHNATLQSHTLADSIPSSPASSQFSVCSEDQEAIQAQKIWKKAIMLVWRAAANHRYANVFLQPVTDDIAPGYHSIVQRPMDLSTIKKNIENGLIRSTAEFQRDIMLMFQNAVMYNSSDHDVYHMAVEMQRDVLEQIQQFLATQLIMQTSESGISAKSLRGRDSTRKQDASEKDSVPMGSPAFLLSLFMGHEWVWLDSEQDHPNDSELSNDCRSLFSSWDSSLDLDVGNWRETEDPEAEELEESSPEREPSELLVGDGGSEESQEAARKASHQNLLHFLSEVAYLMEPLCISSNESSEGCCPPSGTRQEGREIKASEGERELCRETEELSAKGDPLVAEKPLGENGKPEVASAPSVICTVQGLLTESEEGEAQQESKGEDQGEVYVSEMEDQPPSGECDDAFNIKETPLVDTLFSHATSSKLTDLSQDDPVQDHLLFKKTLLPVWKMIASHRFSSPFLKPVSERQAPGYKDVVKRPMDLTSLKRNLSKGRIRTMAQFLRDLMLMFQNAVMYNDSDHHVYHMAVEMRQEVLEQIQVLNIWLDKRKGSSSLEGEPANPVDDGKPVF
UniProt Q96G97: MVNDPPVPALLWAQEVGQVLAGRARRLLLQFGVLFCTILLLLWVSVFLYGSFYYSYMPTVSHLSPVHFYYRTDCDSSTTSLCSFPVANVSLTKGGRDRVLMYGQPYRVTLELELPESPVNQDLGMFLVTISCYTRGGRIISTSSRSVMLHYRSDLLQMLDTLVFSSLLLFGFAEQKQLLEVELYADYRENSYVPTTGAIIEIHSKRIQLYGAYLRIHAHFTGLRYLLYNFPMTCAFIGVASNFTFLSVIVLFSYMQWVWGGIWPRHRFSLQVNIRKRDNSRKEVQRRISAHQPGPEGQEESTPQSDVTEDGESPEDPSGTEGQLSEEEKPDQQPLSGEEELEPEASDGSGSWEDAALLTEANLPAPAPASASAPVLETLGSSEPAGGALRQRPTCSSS
UniProt Q9H6S1, whole entry, looked up: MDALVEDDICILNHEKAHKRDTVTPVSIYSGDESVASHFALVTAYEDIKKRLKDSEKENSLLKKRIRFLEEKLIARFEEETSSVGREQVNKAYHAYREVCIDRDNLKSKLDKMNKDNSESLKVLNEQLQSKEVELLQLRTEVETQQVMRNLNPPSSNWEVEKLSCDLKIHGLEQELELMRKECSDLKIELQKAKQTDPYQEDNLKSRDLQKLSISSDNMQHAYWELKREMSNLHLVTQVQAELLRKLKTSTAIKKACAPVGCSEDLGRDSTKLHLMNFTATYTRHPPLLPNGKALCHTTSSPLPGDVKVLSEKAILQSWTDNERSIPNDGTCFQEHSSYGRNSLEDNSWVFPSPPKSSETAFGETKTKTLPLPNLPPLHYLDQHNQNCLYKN
UniProt Q8NCR0: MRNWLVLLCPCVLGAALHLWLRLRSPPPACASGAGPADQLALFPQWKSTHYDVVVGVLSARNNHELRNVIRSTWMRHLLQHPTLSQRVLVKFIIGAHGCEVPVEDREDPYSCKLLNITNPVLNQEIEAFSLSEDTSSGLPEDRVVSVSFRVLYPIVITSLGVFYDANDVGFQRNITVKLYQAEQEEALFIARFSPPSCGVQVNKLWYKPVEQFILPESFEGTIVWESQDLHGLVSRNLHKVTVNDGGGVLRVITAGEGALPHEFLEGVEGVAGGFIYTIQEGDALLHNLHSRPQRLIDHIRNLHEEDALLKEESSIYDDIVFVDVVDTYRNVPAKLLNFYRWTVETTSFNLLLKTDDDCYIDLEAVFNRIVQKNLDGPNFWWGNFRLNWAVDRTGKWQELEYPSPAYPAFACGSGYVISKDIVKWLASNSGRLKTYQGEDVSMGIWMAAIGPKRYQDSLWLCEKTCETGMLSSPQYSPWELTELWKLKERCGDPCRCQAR

[1] = compound: Cc1cccc(CC(=O)N2CCc3c2ccc(-c2cn(C)c4ncnc(N)c24)c3F)n1
Method in brief: as §1

nilotinib = compound: Cc1cn(-c2cc(NC(=O)c3ccc(C)c(Nc4nccc(-c5cccnc5)n4)c3)cc(C(F)(F)F)c2)cn1 [nilotinib]
Method in brief: as §1

[2] = compound: Cc1nc(Nc2n[nH]c3c2CN(C(=O)N[C@H](CN(C)C)c2ccccc2)C3(C)C)c2sccc2n1
Method in brief: as §1

[3] = compound: Cc1ncc(-c2ccnc(Nc3ccc(S(C)(=O)=O)cc3)n2)n1C(C)C
Method in brief: as §1

[4] = compound: Cn1cc(-c2ccc3c(c2)CCN3C(=O)Cc2cccc(C(F)(F)F)c2)c2c(N)ncnc21
Method in brief: as §1

[5] = compound: Cn1cc(-c2ccc3nnc(C(F)(F)c4ccc5ncccc5c4)n3n2)cn1
Method in brief: as §1

tipifarnib = compound: Cn1cncc1[C@@](N)(c1ccc(Cl)cc1)c1ccc2c(c1)c(-c1cccc(Cl)c1)cc(=O)n2C [tipifarnib]
Method in brief: as §1

mubritinib = compound: FC(F)(F)c1ccc(/C=C/c2nc(COc3ccc(CCCCn4ccnn4)cc3)co2)cc1 [mubritinib]
Method in brief: as §1

[6] = compound: NC(=O)Nc1cc(-c2cccc(F)c2)sc1C(=O)N[C@H]1CCCNC1
Method in brief: as §1

[7] = compound: NC(=O)c1cnc(N[C@@H]2CCCC[C@@H]2N)nc1Nc1cccc(-n2nccn2)c1
Method in brief: as §1

[8] = compound: NC1(c2ccc(-c3nc4ccn5c(=O)[nH]nc5c4cc3-c3ccccc3)cc2)CCC1
Method in brief: as §1

[9] = compound: NCC(=O)Nc1ccc(-n2nc(C(F)(F)F)cc2-c2ccc3c(ccc4ccccc43)c2)cc1
Method in brief: as §1

entinostat = compound: Nc1ccccc1NC(=O)c1ccc(CNC(=O)OCc2cccnc2)cc1 [entinostat]
Method in brief: as §1

vorinostat = compound: O=C(CCCCCCC(=O)Nc1ccccc1)NO [vorinostat]
Method in brief: as §1

citarinostat = compound: O=C(CCCCCCNC(=O)c1cnc(N(c2ccccc2)c2ccccc2Cl)nc1)NO [citarinostat]
Method in brief: as §1

silmitasertib = compound: O=C(O)c1ccc2c(c1)nc(Nc1cccc(Cl)c1)c1ccncc12 [silmitasertib]
Method in brief: as §1

[10] = compound: O=C1NC(=O)C(c2cnc3ccccn23)=C1c1cn2c3c(cc(F)cc13)CN(C(=O)N1CCCCC1)CC2
Method in brief: as §1

[11] = compound: c1cc(OCCN2CCCCC2)cc(-c2n[nH]c3ccc(-c4nnc[nH]4)cc23)c1
Method in brief: as §1

dasatinib = compound: Cc1nc(Nc2ncc(C(=O)Nc3c(C)cccc3Cl)s2)cc(N2CCN(CCO)CC2)n1 [dasatinib]
Method in brief: as §1

Measured: log2 fold change

BAG5 isoform 2 (UniProt Q9UL15)
inactive: bafetinib -0.052 | [1] 0.014 | nilotinib 0.037 | [2] -0.025 | [3] 0.069 | [4] 0.064 | [5] 0.082 | tipifarnib -0.224 | mubritinib 0.048 | [6] 0.059 | [7] -0.036 | [8] -0.214 | [9] 0.03 | entinostat 0.063 | vorinostat 0.09 | citarinostat 0.145 | silmitasertib 0.011 | [10] 0.004 | [11] -0.097

AUH (UniProt Q13825)
inactive: bafetinib -0.102 | [1] 0.024 | dasatinib 0.145 | [4] -0.072 | [5] 0.007 | tipifarnib -0.011 | mubritinib 0.048 | [7] 0.011 | [8] -0.023 | [9] 0.103 | vorinostat 0.018 | citarinostat -0.103 | silmitasertib -0.061 | [11] 0.003

BLOC1S6 (UniProt Q9UL45)
inactive: bafetinib 0.056 | nilotinib -0.066 | [2] -0.063 | dasatinib 0.003 | [3] 0.003 | [4] 0.068 | [5] 0.033 | tipifarnib -0.158 | mubritinib -0.053 | [6] 0.021 | [7] 0.003 | [8] 0.042 | [9] -0.065 | entinostat -0.009 | citarinostat 0.07 | silmitasertib 0.179 | [10] 0.007 | [11] -0.114

BRD2 isoform 2 (UniProt P25440)
inactive: bafetinib 0.136 | [1] 0.476 | dasatinib -0.32 | [4] 0.11 | tipifarnib -0.171 | [6] -0.01 | [7] -0.209 | [9] -0.112 | entinostat -0.159 | vorinostat -0.214

BLM (UniProt P54132)
inactive: bafetinib 0 | nilotinib 0.002 | [2] 0.049 | dasatinib -0.095 | [3] -0.035 | [4] 0.033 | [5] 0.019 | tipifarnib 0.04 | mubritinib 0.02 | [6] 0.039 | [7] -0.007 | [8] -0.093 | [9] -0.06 | entinostat 0.037 | citarinostat 0.009 | silmitasertib -0.091 | [11] -0.023

BNIP3 (UniProt Q12983)
inactive: bafetinib -0.051 | [1] 0.015 | nilotinib -0.039 | [2] 0.002 | [3] 0.058 | [5] -0.058 | tipifarnib 0.008 | mubritinib 0.094 | [6] -0.042 | [7] -0.112 | [8] -0.255 | [9] -0.023 | entinostat 0.061 | vorinostat 0.03 | citarinostat 0.052 | silmitasertib 0.171 | [10] -0.179 | [11] -0.087

BIRC5 (UniProt O15392)
inactive: bafetinib -0.076 | nilotinib 0.077 | [2] 0.023 | dasatinib -0.004 | [3] 0.098 | [4] -0.031 | [5] -0.038 | tipifarnib -0.033 | [6] -0.003 | [7] 0.018 | [9] 0.145 | entinostat -0.032 | citarinostat 0.09 | [10] -0.148 | [11] 0.044

BCL7C isoform 2 (UniProt Q8WUZ0)
inactive: bafetinib -0.05 | nilotinib 0.049 | [2] 0.036 | [3] -0.074 | [4] -0.056 | mubritinib -0.007 | [6] 0.043 | [8] -0.066 | entinostat -0.12 | silmitasertib 0.022 | [10] 0.128

BRD8 isoform 2 (UniProt Q9H0E9)
inactive: bafetinib -0.057 | [1] 0.064 | dasatinib -0.136 | [4] -0.022 | [5] -0.038 | tipifarnib -0.038 | [6] -0.016 | [7] -0.205 | [9] -0.13 | entinostat 0.039 | vorinostat -0.092 | citarinostat -0.019 | [10] 0.102 | [11] -0.09

BSCL2 isoform 4 (UniProt Q96G97)
inactive: bafetinib -0.225 | [1] -0.041 | nilotinib 0.101 | [2] 0.026 | dasatinib -0.14 | [3] 0.116 | [4] 0.002 | tipifarnib 0.109 | mubritinib 0.133 | [7] -0.197 | [8] -0.013 | [9] 0.007 | vorinostat 0.074 | silmitasertib 0.172 | [10] 0.033

AZI2 (UniProt Q9H6S1)
inactive: bafetinib -0.049 | nilotinib 0.179 | [2] 0.481 | [3] 0.099 | [5] 0.105 | [6] -0.094 | [9] -0.152 | entinostat 0.041 | citarinostat -0.014 | [11] -0.028

B3GALNT2 (UniProt Q8NCR0)
inactive: bafetinib -0.133 | [1] 0.011 | [5] -0.004 | tipifarnib 0.306 | mubritinib 0.055 | [6] -0.022 | [8] -0.018 | [9] -0.258 | entinostat 0.071 | vorinostat -0.163 | citarinostat -0.025 | silmitasertib 0.135 | [10] 0.007 | [11] -0.356
